# Source: the supplement of paper PMC8326762, “A Small Molecule Inhibitor of Pex3–Pex19 Interaction Disrupts Glycosome Biogenesis and Causes Lethality in Trypanosoma brucei” (Frontiers in Cell and Developmental Biology, 2021)
# Structures can show the parent of a compound that is named as a salt. Some of the results follow. Single values of this set are uncertain.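 Yeast growth was read as optical density at 600 nm. The two-hybrid strains grew without histidine, so growth needed the Pex3–Pex19 binding; a compound counted as trypanosome-selective if it cut growth of the trypanosome-pair strain by more than 65% and the human-pair strain by less than 65%.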
# How the values were obtained:
# [1] = test system: Saccharomyces cerevisiae HF7c pdr5Δ; test: general growth inhibition of yeast HF7c pdr5Δ in -Leu -Trp medium, relative to DMSO; higher = stronger general growth inhibition; conditions: 100 µM; 24 h
# [2] = test system: human PEX3-PEX19 interaction (yeast two-hybrid); test: growth inhibition of yeast two-hybrid strain reporting HsPex3-HsPex19 interaction, relative to DMSO; higher = stronger inhibition of human Pex3-Pex19 interaction / growth; conditions: 100 µM; 24 h; 3-aminotriazole 10 mM
# [3] = test system: T. brucei Pex3-Pex19 interaction (yeast two-hybrid); test: growth inhibition of yeast two-hybrid strain reporting TbPex3-TbPex19 interaction, relative to DMSO; higher = stronger inhibition of T. brucei Pex3-Pex19 interaction / growth; conditions: 100 µM; 24 h
Compound,general growth inhibition [1],growth inhibition [2],growth inhibition [3]
CN(C)CCC(c1ccccc1)c1ccccn1 (stereo not given) [Pheniramine maleate],42.2%,35.8%,61.6%
C[N+](C)(C)CCCCCC[N+](C)(C)C [Hexamethonium dichloride],36.9%,41.1%,69.1%
"CCCn1c(=O)c2c(ncn2C)n(CCC)c1=O [1,3-Dipropyl-7-methylxanthine]",30.8%,46.9%,54.9%
C[C@@H](N)[C@H]1CC[C@H](C(=O)Nc2ccncc2)CC1,30%,36.9%,58.5%
COC1(C2=NCCN2)COc2ccccc2O1 (stereo not given),50.4%,19.8%,60.8%
CCN(CC)CCCCNc1ncc2cc(-c3c(Cl)cccc3Cl)c(NC(=O)NC(C)(C)C)nc2n1,6%,-9.45%,21.2%
CCCCCCCCCCCCCCSCC(=O)O [Tetradecylthioacetic acid],48.2%,47.9%,58.8%
COc1ccc(-c2cc3ncc(C)n3c(Nc3ncccc3C(N)=O)n2)cc1OC [BAY 61-3606 hydrochloride hydrate],48%,43.8%,65.1%
CCN(CC)CCn1c(=O)c(Cc2ccc(OC)cc2)nc2ccccc21 [Caroverine hydrochloride],51.5%,45.6%,59.3%
CCOC(=O)C1=C(C)NC(C)=C(C(=O)OCC)C1c1c(F)c(F)c(F)c(F)c1F [Nemadipine-A],68.3%,45%,60.5%
O=C(O)c1cccnc1Nc1cccc(C(F)(F)F)c1 [Niflumic acid],48.7%,47.9%,55.3%
O=C(O)CNC(=O)C(CS)Cc1ccccc1 (racemic) [DL-Thiorphan],57.1%,48.5%,63.2%
CC1=C(/C=C/C(C)=C/C=C/C(C)=C/C(=O)O)C(C)(C)CCC1 [Retinoic acid],49.6%,34.2%,52.2%
COc1ccc(CN(CCN(C)C)c2ccccn2)cc1 [Pyrilamine maleate],32%,40.2%,58.1%
CC(=O)c1ccc(S(=O)(=O)NC(=O)NC2CCCCC2)cc1 [Acetohexamide],13.7%,9.05%,27.8%
OC(CCN1CCCCC1)(c1ccccc1)C1CCCCC1 (stereo not given) [Trihexyphenidyl hydrochloride],38.6%,45.6%,60.2%
"NCCCCCCCCCCN [1,10-Diaminodecane]",36.6%,42.9%,66.2%
CN1CCN(c2nc3cc(C(F)(F)F)ccc3n3cccc23)CC1,30.7%,28.3%,26.8%
CN1CCN2c3ccccc3Cc3ccccc3C2C1 (stereo not given) [Mianserin hydrochloride],40.8%,37.3%,64.6%
Cc1cn([C@H]2C[C@H](N=[N+]=[N-])[C@@H](CO)O2)c(=O)[nH]c1=O [3'-Azido-3'-deoxythymidine],39.2%,36.8%,59.5%
"NC(N)=NC(=O)c1nc(Cl)c(N2CCCCCC2)nc1N [5-(N,N-hexamethylene)amiloride]",41.2%,35.7%,56.9%
COc1ccc(CCN(C)CCCC(C#N)(c2cc(OC)c(OC)c(OC)c2)C(C)C)cc1OC (racemic) [(±)-Methoxyverapamil hydrochloride],42.5%,52.1%,63.8%

Compound,general growth inhibition [1],growth inhibition [2],growth inhibition [3]
CNCCCC12CCC(c3ccccc31)c1ccccc12 [Maprotiline hydrochloride],31.2%,31.5%,50.6%
O=c1onc2n1-c1cc(Br)ccc1OC2,47.6%,29.3%,53.5%
CNc1cc(NS(=O)(=O)c2ccc(N)cc2)nc(NC)n1 [Ro 04-6790 dihydrochloride],20.1%,14.4%,48%
N[C@@H](Cc1ccc(F)cc1)C(=O)O [p-Fluoro-L-phenylalanine],29.6%,35.7%,55.1%
O=NN(CCCl)C(=O)NCCCl [Carmustine],50.6%,40.7%,69.5%
CCCCS(=O)(=O)N[C@@H](Cc1ccc(OCCCCC2CCNCC2)cc1)C(=O)O [Tirofiban hydrochloride monohydrate],52.5%,36.1%,65.9%
CCCC(CCC)C(=O)O[C@H]1C[C@H]2CC[C@@H](C1)[N+]2(C)C [Anisotropine methyl bromide],4.46%,3.81%,25.4%
N=C(N)c1ccc(OCCCCCOc2ccc(C(=N)N)cc2)cc1 [Pentamidine isethionate],50.5%,47.4%,67.4%
"CC(N)(Cc1ccc(O)c(O)c1)C(=O)O (racemic) [(±)-3-(3,4-dihydroxyphenyl)-2-methyl-DL-alanine]",52.4%,52.4%,59%
COc1ccccc1N1CCN(CCCCNC(=O)c2ccc3ccccc3c2)CC1,35.1%,24.2%,50.8%
COc1cc(C(=O)OCCCN2CCCN(CCCOC(=O)c3cc(OC)c(OC)c(OC)c3)CC2)cc(OC)c1OC [Dilazep hydrochloride],37.1%,36%,62.4%
O=C(O)c1cc(=O)cc(C(=O)O)[nH]1 [Chelidamic acid],40.7%,43%,57.1%
O=C(Nc1cccc(C(=O)Nc2ccc(S(=O)(=O)O)c3cc(S(=O)(=O)O)cc(S(=O)(=O)O)c23)c1)Nc1cccc(C(=O)Nc2ccc(S(=O)(=O)O)c3cc(S(=O)(=O)O)cc(S(=O)(=O)O)c23)c1,35%,35.6%,55%
CN(C)CCCN1c2ccccc2Sc2ccc(C(F)(F)F)cc21 [Triflupromazine hydrochloride],44.6%,32.8%,56.4%
"Nc1ccn([C@H]2CC[C@@H](CO)O2)c(=O)n1 [2',3'-dideoxycytidine]",41.3%,44.7%,65.1%
O=C1c2c(O)cc(O)cc2O[C@H](c2ccc(O)c(O)c2)[C@H]1O (racemic) [(±)-Taxifolin],11.8%,11.8%,43.1%
CCN(CC)CC#CCOC(=O)C(O)(c1ccccc1)C1CCCCC1 (stereo not given) [Oxybutynin Chloride],47.7%,34.5%,64.3%
CS(=O)(=O)Nc1ccc([N+](=O)[O-])cc1Oc1ccccc1 [Nimesulide],48.6%,49.1%,63.3%
C[C@@H]1C(=O)NC2=Nc3cccc(Cl)c3CN21 [Quazinone],44.6%,43.2%,62.1%
Cc1cnc(NC(=O)C2=C(O)c3ccccc3S(=O)(=O)N2C)s1 [Meloxicam sodium],43.2%,34.7%,57.7%
"c1cnc2c(c1)ccc1cccnc12 [1,10-Phenanthroline monohydrate]",89.9%,82.9%,83.2%
CN1CCC(=C2c3ccccc3CC(=O)c3sccc32)CC1 [Ketotifen fumarate],45.7%,43.8%,67.4%

Compound,general growth inhibition [1],growth inhibition [2],growth inhibition [3]
Nc1nc2c(c(=O)[nH]1)C[C@@H](CCc1ccc(C(=O)N[C@@H](CCC(=O)O)C(=O)O)cc1)CN2 [Lometrexol hydrate],39.8%,44.6%,69.1%
NC(N)=Nc1nc(CSCC/C(N)=N/S(N)(=O)=O)cs1 [Famotidine],39.2%,41.5%,60.7%
CCn1cc(C(=O)O)c(=O)c2ccc(C)nc21 [Nalidixic acid sodium],73.9%,63.3%,78.5%
O=C(c1ccc(F)cc1)C1CCN(CCn2c(=O)[nH]c3ccccc3c2=O)CC1 [Ketanserin tartrate],17.1%,8.66%,40.3%
C[C@H]1O[C@@H](n2cc(F)c(=O)[nH]c2=O)[C@H](O)[C@@H]1O [5-fluoro-5'-deoxyuridine],37.9%,36%,57.4%
O=[N+]([O-])c1ccc(-c2nc(-c3ccc(F)cc3)c(-c3ccncc3)[nH]2)cc1,-1.49%,-11%,2.34%
C[C@]12C[C@H](O)[C@H]3[C@@H](CCC4=CC(=O)CC[C@@]43C)[C@@H]1CC[C@@H]2C(=O)CO [Corticosterone],43.3%,45.7%,53.3%
CN/C(=N\CCSCc1nc[nH]c1C)NC#N [Cimetidine],45.9%,39.2%,49.9%
N=C(N)NC(=O)c1nc(Cl)c(N)nc1N [Amiloride hydrochloride],38.8%,40.7%,56.4%
c1ccc(C2CN3CCSC3=N2)cc1 (stereo not given) [Tetramisole hydrochloride],9.35%,13.3%,34.1%
O=C1C(SCCO)=C(SCCO)C(=O)c2ccccc21,68.8%,47.3%,65.7%
COc1cc2nc(N3CCN(C(=O)c4ccco4)CC3)nc(N)c2cc1OC [Prazosin hydrochloride],-4.62%,-15%,2%
C=CCN1CCc2c(cc(O)c(O)c2Br)[C@@H](c2ccccc2)C1 [R(+)-6-Bromo-APB hydrobromide],47.1%,41.9%,63.1%
Cc1cc(NC2CCCCC2)nc(-n2nc(C)cc2C)n1,32.5%,33.1%,61.7%
CC(=O)Nc1nnc(S(N)(=O)=O)s1 [Acetazolamide],49.3%,52.9%,60.6%
"O=C(O)[C@H]1NCCC[C@H]1C(=O)O (racemic) [(±)-cis-Piperidine-2,3-dicarboxylic acid]",25.1%,18.8%,48.5%
NC[C@@H](O)c1ccc(O)c(O)c1 [L(-)-Norepinephrine bitartrate],42.2%,34.3%,62.4%
Cc1c(O)cccc1C(=O)N[C@@H](CSc1ccccc1)[C@H](O)CN1C[C@H]2CCCC[C@H]2C[C@H]1C(=O)NC(C)(C)C [Nelfinavir mesylate hydrate],10.6%,5.96%,21.9%
C#CCN(C)CCCOc1ccc(Cl)cc1Cl [Clorgyline hydrochloride],47.3%,45.4%,72.6%
CN(C)c1ccccc1CN1CCCN(Cc2ccccc2N(C)C)C1c1ccncc1,52.5%,50.5%,68.4%
CC(=O)NCCc1c[nH]c2ccc(O)cc12 [N-Acetyl-5-hydroxytryptamine],48.4%,42.1%,58.7%

# Only general growth inhibition [1] and growth inhibition [2] (2 entries from above):
Compound,general growth inhibition [1],growth inhibition [2]
CCn1cc(C(=O)O)c(=O)c2ccc(C)nc21 [Nalidixic acid sodium],73.9%,63.3%
O=C(c1ccc(F)cc1)C1CCN(CCn2c(=O)[nH]c3ccccc3c2=O)CC1 [Ketanserin tartrate],17.1%,8.66%
